Laboratory results: the supplement of paper PMC11006884
The list shows a part of the results, in another mix than the full data.

Protein sequences, listed by entry. Tags and fused reporters are not part of them. Lines headed by an entry give the natural chain unless they say otherwise; changes in a name come on top.
UniProt Q9BWU0: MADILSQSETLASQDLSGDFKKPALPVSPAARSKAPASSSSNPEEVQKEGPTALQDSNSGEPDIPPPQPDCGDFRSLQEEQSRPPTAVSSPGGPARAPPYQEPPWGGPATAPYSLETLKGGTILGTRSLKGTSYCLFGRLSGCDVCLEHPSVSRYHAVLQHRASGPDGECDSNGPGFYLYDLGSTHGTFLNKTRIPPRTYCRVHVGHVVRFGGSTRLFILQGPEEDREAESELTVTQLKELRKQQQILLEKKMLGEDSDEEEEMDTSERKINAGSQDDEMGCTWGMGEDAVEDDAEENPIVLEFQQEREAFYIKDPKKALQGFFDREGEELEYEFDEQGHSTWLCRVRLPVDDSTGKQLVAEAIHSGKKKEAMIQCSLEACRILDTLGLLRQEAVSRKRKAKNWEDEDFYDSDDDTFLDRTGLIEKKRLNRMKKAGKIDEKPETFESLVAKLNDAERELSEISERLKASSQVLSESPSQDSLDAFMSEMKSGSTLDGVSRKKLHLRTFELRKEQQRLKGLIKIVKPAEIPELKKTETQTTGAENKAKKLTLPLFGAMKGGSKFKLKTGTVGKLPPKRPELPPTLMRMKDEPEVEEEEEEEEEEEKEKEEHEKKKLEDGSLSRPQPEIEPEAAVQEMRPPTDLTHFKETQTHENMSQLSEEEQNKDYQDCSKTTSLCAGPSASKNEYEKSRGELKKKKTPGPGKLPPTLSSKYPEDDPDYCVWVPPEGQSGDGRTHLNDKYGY
UniProt Q9BXW7: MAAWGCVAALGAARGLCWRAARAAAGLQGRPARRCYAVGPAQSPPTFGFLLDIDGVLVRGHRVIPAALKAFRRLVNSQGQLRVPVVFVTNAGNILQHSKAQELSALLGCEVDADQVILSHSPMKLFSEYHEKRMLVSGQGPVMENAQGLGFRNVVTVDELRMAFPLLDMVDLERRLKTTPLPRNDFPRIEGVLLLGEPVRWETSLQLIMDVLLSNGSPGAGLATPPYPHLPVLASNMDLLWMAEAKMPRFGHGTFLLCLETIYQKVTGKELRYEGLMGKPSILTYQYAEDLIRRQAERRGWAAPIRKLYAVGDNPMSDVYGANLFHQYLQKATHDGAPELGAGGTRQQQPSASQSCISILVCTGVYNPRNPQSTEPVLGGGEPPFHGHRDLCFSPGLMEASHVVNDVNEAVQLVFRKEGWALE
UniProt Q9C0F1: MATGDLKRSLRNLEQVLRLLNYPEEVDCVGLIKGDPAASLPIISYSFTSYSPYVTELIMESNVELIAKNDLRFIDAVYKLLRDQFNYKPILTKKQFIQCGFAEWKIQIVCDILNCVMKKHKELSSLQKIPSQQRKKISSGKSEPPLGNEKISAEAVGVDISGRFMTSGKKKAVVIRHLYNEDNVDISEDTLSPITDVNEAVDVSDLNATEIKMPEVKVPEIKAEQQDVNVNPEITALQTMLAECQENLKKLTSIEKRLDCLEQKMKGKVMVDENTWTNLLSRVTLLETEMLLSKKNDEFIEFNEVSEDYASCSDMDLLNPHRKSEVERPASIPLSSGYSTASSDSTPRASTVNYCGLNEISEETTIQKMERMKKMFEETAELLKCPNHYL
UniProt Q9BUJ2: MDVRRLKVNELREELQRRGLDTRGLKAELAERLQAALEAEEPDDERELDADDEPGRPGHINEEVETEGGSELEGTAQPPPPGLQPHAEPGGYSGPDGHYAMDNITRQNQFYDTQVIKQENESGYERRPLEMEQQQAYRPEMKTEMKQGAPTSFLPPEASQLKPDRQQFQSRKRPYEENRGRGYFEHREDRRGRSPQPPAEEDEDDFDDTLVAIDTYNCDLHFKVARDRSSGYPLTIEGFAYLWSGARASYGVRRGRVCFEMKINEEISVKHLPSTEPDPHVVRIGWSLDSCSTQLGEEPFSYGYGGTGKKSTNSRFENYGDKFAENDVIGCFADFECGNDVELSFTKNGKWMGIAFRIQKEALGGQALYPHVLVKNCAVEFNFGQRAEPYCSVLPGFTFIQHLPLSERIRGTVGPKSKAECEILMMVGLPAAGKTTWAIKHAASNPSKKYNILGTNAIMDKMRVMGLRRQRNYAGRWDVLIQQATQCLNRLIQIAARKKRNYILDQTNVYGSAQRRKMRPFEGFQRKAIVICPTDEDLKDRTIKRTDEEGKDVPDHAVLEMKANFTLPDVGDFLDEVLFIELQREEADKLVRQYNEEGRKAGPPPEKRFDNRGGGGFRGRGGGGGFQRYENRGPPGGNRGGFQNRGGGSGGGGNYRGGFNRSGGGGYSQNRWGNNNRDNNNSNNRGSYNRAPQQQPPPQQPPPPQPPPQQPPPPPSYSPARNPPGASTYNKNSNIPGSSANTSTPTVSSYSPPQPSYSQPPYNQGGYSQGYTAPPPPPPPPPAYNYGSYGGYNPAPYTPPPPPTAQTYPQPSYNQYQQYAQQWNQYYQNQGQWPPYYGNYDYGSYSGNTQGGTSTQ
UniProt Q9BUP0: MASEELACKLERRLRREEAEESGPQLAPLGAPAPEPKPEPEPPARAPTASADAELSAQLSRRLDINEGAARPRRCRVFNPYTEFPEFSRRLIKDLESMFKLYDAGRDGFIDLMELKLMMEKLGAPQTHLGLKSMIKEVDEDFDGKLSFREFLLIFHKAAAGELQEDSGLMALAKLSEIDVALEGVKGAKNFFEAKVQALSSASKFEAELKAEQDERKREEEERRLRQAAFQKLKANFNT
UniProt Q9BUF5, whole entry, looked up: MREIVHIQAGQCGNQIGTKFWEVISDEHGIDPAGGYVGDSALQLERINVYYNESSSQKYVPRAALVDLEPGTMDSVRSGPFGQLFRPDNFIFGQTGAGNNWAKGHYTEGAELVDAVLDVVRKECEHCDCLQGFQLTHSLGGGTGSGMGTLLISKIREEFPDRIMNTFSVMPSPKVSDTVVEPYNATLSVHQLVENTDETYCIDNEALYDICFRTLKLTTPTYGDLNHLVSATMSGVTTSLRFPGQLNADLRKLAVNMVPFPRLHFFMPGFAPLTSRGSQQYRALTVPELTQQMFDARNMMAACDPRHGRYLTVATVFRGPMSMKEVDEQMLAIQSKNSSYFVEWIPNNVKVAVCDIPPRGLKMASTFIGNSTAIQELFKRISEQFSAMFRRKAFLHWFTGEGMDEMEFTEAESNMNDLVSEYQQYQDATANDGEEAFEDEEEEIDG
UniProt Q9H2U1: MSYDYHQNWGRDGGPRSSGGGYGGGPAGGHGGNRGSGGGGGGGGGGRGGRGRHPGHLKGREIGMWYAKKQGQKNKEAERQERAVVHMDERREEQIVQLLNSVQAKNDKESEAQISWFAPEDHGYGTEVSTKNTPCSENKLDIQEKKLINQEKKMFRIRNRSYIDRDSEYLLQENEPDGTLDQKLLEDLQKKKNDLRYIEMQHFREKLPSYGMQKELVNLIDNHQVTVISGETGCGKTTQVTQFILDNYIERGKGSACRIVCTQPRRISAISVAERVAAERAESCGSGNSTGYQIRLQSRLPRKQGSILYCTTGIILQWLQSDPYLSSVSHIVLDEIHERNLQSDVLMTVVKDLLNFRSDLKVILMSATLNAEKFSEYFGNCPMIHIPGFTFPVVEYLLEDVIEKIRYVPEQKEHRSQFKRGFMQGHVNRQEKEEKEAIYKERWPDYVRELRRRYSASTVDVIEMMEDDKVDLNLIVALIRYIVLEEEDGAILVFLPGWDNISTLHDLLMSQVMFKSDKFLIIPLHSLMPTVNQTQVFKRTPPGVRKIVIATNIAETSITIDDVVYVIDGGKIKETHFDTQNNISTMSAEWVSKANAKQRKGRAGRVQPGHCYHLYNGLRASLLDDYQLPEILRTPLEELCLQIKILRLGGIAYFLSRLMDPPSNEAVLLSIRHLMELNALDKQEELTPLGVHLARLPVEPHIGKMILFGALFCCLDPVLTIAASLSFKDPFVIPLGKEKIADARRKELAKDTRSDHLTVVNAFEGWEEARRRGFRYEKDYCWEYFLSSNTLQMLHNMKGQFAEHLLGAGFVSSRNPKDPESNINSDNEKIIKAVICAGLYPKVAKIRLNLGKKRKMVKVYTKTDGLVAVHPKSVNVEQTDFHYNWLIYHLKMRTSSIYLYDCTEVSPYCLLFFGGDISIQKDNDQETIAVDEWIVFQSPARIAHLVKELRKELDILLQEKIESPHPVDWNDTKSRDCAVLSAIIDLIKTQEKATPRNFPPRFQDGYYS
UniProt Q9H0A0: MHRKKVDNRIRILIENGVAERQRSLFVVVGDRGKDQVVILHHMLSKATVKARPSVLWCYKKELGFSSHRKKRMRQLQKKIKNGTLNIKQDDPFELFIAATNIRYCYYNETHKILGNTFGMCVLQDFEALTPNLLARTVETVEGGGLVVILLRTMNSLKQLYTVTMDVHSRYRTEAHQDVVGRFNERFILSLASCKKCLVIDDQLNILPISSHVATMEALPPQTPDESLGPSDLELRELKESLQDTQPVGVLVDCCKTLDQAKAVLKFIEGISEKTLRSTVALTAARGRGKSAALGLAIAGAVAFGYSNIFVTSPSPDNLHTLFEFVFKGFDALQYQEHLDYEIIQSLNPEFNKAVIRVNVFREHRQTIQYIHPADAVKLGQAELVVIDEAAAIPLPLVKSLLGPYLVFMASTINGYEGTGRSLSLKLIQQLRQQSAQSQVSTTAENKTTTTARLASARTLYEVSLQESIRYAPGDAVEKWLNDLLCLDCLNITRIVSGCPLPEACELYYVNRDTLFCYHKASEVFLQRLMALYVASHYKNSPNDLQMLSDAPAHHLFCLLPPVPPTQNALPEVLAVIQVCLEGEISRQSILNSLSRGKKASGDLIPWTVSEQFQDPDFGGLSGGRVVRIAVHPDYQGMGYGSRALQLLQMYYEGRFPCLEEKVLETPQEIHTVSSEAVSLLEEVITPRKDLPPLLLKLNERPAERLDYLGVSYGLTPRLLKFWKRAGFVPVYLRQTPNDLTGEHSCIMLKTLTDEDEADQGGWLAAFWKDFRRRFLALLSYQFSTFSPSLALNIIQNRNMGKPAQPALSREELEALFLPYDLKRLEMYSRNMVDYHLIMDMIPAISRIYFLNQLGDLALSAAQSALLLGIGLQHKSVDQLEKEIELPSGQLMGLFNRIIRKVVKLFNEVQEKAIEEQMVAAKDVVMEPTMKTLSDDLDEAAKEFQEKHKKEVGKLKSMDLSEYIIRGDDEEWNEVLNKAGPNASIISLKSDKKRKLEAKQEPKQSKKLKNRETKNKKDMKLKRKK
UniProt Q9BWG4: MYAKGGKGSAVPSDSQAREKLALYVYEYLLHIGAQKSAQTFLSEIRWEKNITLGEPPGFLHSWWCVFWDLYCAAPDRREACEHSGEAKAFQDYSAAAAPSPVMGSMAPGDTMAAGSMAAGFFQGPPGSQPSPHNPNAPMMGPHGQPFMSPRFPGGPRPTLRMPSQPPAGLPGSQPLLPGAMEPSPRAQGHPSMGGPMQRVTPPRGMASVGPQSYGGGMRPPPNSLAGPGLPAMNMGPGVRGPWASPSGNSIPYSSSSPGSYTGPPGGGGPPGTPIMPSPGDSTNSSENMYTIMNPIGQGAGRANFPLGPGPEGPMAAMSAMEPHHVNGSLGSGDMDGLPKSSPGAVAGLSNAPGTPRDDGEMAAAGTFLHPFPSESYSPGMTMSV
UniProt Q9BV38: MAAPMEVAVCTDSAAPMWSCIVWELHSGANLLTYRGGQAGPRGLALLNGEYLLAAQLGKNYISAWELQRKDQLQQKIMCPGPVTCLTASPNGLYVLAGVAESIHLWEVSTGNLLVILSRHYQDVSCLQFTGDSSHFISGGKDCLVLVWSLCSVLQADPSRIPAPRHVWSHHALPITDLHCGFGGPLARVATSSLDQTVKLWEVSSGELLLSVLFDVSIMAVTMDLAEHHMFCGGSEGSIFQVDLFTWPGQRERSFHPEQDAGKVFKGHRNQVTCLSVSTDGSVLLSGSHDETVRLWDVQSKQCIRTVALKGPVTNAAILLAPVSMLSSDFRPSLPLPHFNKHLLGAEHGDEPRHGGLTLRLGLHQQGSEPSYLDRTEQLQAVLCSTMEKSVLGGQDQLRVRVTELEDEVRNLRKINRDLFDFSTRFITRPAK
UniProt Q9BTT0: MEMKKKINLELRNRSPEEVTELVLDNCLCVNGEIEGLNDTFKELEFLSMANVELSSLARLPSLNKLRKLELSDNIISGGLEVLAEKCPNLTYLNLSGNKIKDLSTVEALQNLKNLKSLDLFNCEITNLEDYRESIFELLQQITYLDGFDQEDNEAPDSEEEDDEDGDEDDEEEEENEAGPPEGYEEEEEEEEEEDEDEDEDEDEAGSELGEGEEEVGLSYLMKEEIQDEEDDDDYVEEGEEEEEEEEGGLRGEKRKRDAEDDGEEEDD

compound: COC(=O)C#Cc1ccccc1 [methyl 3-phenylpropiolate]; test: log2 ratio of iodoacetamide-alkyne labeling of the cysteine site, DMSO over compound (competition); higher = stronger covalent engagement of the cysteine by the compound, active = 1 or more; conditions: 500 µM; treatment time 1 h; system: HEK293T cell lysate
Summary of the method: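 Three replicates, each with duplicate channels, were prepared from HEK293T lysate (2 mg/mL) treated with vehicle or electrophile at 500 µM for 1 h at ambient temperature. Iodoacetamide alkyne was then applied for 1 h, and samples were clicked to sCIP-TMT reagents, pooled, trypsin-digested overnight at 37 °C, enriched on streptavidin, acid-eluted and analysed on Orbitrap Eclipse LC-MS/MS with FAIMS, with FragPipe quantification. The log2 competition ratio per cysteine is the mean control-channel divided by the mean compound-channel reporter intensity. Cysteines quantified in only one replicate were left out.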

log2 ratio of iodoacetamide-alkyne labeling, inactive:
SLC4A1AP C336 (UniProt Q9BWU0) 0.256
UniProt Q9BXW7_C392 -0.0305
UniProt Q9C0F1_C355 0.225
HNRNPUL1 C487 (UniProt Q9BUJ2) -0.108
EFHD1 C8 (UniProt Q9BUP0) 0.546
TUBB6 C124 (UniProt Q9BUF5) 0.874
DHX36 C234 (UniProt Q9H2U1) 0.19
NAT10 C489 (UniProt Q9H0A0) 0.0616
FYCO1 C882 (UniProt Q9BQS8) 0.192
TOLLIP C229 (UniProt Q9H0E2) 0.227
SSBP4 C81 (UniProt Q9BWG4) 0.752
WDR18 C384 (UniProt Q9BV38) 0.328
TANC1 C1651 (UniProt Q9C0D5) 0.345
ANP32E C87 (UniProt Q9BTT0) 0.147

Two records picked at random from the list so far:
log2 ratio of iodoacetamide-alkyne labeling, inactive:
FYCO1 C882 (UniProt Q9BQS8) 0.192
WDR18 C384 (UniProt Q9BV38) 0.328
